These are yes or no findings as the source states them, for the method shown. Binding can be weak; no strength is given.
Target: T1, Csa5 (recombinant, soluble) (Thermoproteus tenax) (UniProt G4RJZ0)
T1 sequence: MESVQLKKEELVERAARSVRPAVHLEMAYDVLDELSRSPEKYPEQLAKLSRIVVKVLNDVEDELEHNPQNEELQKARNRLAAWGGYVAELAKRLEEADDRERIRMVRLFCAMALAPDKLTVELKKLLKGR
Experiment: SEC; six co-refolded Cascade subunits, incubated 30 min at 65°C, Superdex 200 10/300; fractions TCA-precipitated and analysed by SDS-PAGE; both purified

| binding | Substance |
| --- | --- |
| binds | Cas3′ (recombinant, refolded) (Thermoproteus tenax) |
| binds | Cas3′′ (recombinant, refolded) (Thermoproteus tenax) |

From paper PMC4005679, “In vitro assembly and activity of an archaeal CRISPR-Cas type I-A Cascade interference complex” (Nucleic Acids Research, 2014)
